Values of other authors in patent US20260284201A1, “COMPOSITIONS AND METHODS FOR TREATING TENDON AND BONE INJURIES” (The United States Government as represented by the …, priority 2023, published 2026).

System: human rotator cuff tendon fibroblasts
Details: low dose, in vitro; cited from earlier work

NCCCC(O)(P(=O)(O)O)P(=O)(O)O [alendronate]
viability, proliferation and wound healing capacity: little effect
